Test results from PMC11736008.
No constants are given. Whether binding was seen depends on the method and setting. Binding seen in cells or lysates may run through a third protein. Some results given as binding are weak or reduced against the parent protein; the word gives no strength. For part of these data: Where a sequence is shown, tags or fusion partners need not be part of it.

T1: IFIT3^WT (UniProt O14879)
T1 sequence: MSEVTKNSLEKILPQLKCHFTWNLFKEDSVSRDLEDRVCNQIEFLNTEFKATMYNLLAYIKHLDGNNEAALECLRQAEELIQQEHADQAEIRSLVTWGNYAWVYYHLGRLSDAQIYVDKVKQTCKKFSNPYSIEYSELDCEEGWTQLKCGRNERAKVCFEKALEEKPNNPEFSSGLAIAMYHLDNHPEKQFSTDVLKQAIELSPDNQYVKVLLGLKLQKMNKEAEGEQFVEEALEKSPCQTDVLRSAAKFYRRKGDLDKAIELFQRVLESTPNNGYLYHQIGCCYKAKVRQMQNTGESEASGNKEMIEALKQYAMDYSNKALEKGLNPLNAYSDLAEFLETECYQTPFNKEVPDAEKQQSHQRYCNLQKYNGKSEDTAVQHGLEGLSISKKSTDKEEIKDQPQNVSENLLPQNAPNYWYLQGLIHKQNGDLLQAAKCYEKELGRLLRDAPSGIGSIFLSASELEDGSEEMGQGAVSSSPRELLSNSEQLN

T2: IFIT1^WT-Myc (UniProt P09914)
T2 sequence: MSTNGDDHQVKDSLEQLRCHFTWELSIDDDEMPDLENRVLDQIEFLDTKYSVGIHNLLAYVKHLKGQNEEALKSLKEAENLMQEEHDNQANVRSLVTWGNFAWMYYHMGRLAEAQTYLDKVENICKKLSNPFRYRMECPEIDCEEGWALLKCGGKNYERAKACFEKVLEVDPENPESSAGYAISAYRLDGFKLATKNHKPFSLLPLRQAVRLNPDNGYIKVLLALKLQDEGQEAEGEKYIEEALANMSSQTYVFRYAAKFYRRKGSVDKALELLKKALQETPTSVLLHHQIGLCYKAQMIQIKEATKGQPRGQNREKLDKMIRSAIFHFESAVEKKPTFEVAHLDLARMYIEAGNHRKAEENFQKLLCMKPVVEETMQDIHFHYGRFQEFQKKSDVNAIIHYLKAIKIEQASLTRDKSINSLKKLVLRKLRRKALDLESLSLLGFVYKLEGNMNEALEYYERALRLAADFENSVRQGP


Tests used:
IFIT3^WT = molecular target: T1, IFIT3^WT; test: co-IP; anti-Myc antibodies on lysates of H1975 cells overexpressing HA-tagged OAS (WT or Del-NT) and Myc-tagged IFIT (WT or Del-TPR12); protein A/G beads overnight at 4 °C; immunoblot (OAS3/IFIT3 and OAS2/IFIT5 in Fig. S8C, details not shown)
IFIT1^WT-Myc [1] = molecular target: T2, IFIT1^WT-Myc; test: as above
IFIT1^WT-Myc [2] = molecular target: T2, IFIT1^WT-Myc; test: co-IP; verification in A549 and H1299 cells (Fig. S9, E and F); details not shown

binding (IFIT3^WT) | binding (IFIT1^WT-Myc [1]) | binding (IFIT1^WT-Myc [2]) | Binder
binds |  |  | OAS3^WT (protein, UniProt Q9Y6K5 1-1087) MDLYSTPAAALDRFVARRLQPRKEFVEKARRALGALAAALRERGGRLGAAAPRVLKTVKGGSSGRGTALKGGCDSELVIFLDCFKSYVDQRARRAEILSEMRASLESWWQNPVPGLRLTFPEQSVPGALQFRLTSVDLEDWMDVSLVPAFNVLGQAGSGVKPKPQVYSTLLNSGCQGGEHAACFTELRRNFVNIRPAKLKNLILLVKHWYHQVCLQGLWKETLPPVYALELLTIFAWEQGCKKDAFSLAEGLRTVLGLIQQHQHLCVFWTVNYGFEDPAVGQFLQRQLKRPRPVILDPADPTWDLGNGAAWHWDLLAQEAASCYDHPCFLRGMGDPVQSWKGPGLPRAGCSGLGHPIQLDPNQKTPENSKSLNAVYPRAGSKPPSCPAPGPTGAASIVPSVPGMALDLSQIPTKELDRFIQDHLKPSPQFQEQVKKAIDIILRCLHENCVHKASRVSKGGSFGRGTDLRDGCDVELIIFLNCFTDYKDQGPRRAEILDEMRAQLESWWQDQVPSLSLQFPEQNVPEALQFQLVSTALKSWTDVSLLPAFDAVGQLSSGTKPNPQVYSRLLTSGCQEGEHKACFAELRRNFMNIRPVKLKNLILLVKHWYRQVAAQNKGKGPAPASLPPAYALELLTIFAWEQGCRQDCFNMAQGFRTVLGLVQQHQQLCVYWTVNYSTEDPAMRMHLLGQLRKPRPLVLDPADPTWNVGHGSWELLAQEAAALGMQACFLSRDGTSVQPWDVMPALLYQTPAGDLDKFISEFLQPNRQFLAQVNKAVDTICSFLKENCFRNSPIKVIKVVKGGSSAKGTALRGRSDADLVVFLSCFSQFTEQGNKRAEIISEIRAQLEACQQERQFEVKFEVSKWENPRVLSFSLTSQTMLDQSVDFDVLPAFDALGQLVSGSRPSSQVYVDLIHSYSNAGEYSTCFTELQRDFIISRPTKLKSLIRLVKHWYQQCTKISKGRGSLPPQHGLELLTVYAWEQGGKDSQFNMAEGFRTVLELVTQYRQLCIYWTINYNAKDKTVGDFLKQQLQKPRPIILDPADPTGNLGHNARWDLLAKEAAACTSALCCMGRNGIPIQPWPVKAAV
 | binds | binds | OAS1^WT-HA (protein, UniProt P00973 1-400) MMDLRNTPAKSLDKFIEDYLLPDTCFRMQINHAIDIICGFLKERCFRGSSYPVCVSKVVKGGSSGKGTTLRGRSDADLVVFLSPLTTFQDQLNRRGEFIQEIRRQLEACQRERAFSVKFEVQAPRWGNPRALSFVLSSLQLGEGVEFDVLPAFDALGQLTGGYKPNPQIYVKLIEECTDLQKEGEFSTCFTELQRDFLKQRPTKLKSLIRLVKHWYQNCKKKLGKLPPQYALELLTVYAWERGSMKTHFNTAQGFRTVLELVINYQQLCIYWTKYYDFKNPIIEKYLRRQLTKPRPVILDPADPTGNLGGGDPKGWRQLAQEAEAWLNYPCFKNWDGSPVSSWILLAESNSADDETDDPRRYQKYGYIGTHEYPHFSHRPSTLQAASTPQAEEDWTCTIL
